Laboratory results as given in publication PMC4817527.
No constants are given. Whether binding was seen depends on the method and setting. Binding seen in cells or lysates may run through a third protein. Some binding calls cover weakened binding; strength is not graded here.

By UniProt entry, the sequences of proteins in these tests, tags left out. Where a name states a change or a piece, a line headed by the entry shows the natural chain unless it says otherwise. Chains listed by the source or under a name are the forms on record and can include a tag or linker.
UniProt Q13547: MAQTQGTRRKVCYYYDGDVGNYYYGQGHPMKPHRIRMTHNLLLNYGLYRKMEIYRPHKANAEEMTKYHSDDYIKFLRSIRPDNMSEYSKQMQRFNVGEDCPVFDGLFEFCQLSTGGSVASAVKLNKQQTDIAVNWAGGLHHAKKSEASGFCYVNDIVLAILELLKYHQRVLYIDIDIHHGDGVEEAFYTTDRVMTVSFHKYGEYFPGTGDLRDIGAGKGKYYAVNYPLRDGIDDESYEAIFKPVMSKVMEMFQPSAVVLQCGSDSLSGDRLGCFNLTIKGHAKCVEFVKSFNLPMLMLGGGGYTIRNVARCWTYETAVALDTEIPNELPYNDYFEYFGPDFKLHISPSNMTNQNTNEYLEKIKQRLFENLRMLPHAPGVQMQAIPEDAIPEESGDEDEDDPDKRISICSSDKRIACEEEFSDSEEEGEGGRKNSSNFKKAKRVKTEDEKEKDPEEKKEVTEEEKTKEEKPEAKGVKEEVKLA
UniProt Q09472: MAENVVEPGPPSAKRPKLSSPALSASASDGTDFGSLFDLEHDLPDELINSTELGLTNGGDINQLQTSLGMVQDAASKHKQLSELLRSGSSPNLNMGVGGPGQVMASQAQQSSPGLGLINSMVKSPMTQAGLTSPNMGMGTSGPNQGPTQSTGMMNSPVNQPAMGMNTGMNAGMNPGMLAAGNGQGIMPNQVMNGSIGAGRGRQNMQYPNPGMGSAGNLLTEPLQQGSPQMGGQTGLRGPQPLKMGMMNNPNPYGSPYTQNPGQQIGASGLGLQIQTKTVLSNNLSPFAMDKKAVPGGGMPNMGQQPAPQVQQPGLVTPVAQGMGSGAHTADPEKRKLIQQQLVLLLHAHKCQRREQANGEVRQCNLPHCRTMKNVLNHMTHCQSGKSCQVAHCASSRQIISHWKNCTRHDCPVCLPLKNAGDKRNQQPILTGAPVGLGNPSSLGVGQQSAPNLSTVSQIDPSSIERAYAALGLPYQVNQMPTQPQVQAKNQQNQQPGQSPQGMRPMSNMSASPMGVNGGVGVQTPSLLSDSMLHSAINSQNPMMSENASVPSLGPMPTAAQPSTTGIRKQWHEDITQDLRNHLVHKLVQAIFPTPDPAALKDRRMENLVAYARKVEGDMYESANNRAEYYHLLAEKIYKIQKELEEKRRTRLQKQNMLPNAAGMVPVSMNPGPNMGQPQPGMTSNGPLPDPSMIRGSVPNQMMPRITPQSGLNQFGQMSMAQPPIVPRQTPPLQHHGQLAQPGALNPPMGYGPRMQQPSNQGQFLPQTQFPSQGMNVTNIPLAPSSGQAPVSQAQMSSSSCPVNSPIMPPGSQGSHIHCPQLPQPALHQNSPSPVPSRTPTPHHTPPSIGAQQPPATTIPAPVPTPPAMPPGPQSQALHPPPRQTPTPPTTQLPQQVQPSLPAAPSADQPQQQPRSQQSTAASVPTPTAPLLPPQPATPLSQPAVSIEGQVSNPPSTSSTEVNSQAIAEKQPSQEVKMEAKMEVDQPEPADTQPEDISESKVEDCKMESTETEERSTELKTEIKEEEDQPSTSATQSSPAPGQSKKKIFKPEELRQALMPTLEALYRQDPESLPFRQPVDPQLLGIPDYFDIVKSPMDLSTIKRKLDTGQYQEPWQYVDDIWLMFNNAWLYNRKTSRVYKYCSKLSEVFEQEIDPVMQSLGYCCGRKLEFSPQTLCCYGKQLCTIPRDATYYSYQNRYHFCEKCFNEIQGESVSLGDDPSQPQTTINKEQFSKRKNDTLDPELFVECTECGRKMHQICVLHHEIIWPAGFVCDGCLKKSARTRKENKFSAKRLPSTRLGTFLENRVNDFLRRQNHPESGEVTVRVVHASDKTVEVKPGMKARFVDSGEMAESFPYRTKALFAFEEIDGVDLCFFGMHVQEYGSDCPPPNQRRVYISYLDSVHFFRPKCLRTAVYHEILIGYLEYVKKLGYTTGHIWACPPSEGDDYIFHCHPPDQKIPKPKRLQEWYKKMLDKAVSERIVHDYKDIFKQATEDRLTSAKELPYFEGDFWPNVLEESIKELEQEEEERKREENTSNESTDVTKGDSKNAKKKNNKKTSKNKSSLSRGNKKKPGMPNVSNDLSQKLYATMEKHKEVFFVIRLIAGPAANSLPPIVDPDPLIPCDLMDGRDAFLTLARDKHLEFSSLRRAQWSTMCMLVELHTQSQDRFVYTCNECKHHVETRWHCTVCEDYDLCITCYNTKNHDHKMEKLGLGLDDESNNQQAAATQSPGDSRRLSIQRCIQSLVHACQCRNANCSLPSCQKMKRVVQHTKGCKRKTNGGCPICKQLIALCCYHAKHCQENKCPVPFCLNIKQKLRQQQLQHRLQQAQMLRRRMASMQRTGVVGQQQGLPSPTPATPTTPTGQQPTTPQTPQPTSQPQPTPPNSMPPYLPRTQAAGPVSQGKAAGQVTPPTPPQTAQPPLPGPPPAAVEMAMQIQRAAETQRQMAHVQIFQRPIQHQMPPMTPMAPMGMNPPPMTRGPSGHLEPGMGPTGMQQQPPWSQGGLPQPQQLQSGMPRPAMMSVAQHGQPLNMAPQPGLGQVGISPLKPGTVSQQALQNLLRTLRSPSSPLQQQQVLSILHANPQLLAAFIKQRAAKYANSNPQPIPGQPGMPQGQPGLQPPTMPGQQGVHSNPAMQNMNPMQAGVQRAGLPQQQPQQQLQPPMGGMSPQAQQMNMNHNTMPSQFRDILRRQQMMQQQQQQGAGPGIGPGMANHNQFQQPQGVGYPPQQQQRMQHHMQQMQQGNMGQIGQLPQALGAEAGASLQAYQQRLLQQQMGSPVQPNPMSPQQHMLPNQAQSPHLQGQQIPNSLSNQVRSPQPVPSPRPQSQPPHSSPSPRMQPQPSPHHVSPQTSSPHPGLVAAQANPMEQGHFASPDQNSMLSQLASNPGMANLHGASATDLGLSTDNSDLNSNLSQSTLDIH
Flag-tagged RORγt (P51449-2, form named): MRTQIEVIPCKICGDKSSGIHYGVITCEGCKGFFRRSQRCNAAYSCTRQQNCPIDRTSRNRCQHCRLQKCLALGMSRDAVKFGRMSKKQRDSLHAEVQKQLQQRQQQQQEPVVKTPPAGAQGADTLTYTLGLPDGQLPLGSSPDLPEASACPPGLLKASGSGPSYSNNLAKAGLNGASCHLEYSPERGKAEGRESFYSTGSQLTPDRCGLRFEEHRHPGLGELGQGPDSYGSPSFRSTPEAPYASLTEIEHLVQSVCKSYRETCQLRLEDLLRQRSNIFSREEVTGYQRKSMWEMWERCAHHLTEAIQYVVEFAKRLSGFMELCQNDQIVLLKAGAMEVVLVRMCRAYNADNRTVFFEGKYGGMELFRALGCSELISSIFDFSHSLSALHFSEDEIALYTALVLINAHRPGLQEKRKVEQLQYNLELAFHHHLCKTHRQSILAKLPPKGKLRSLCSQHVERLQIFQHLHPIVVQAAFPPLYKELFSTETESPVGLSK

Tests used:
[1] = molecular target: HDAC1 (endogenous, human Th17 cells) (human (endogenous in Th17 cells)) (UniProt Q13547); assay: co-IP; endogenous IP from human Th17 cells, western blot
[2] = molecular target: p300 (endogenous, human Th17 cells) (human (endogenous in Th17 cells)) (UniProt Q09472); assay: as above
HA-tagged p300 = HA-tagged p300 (UniProt Q09472); assay: co-IP; tagged proteins cotransfected into HEK293T cells, harvested 48 h after transfection; lysis buffer 50 mM Tris-HCl pH 7.5, 150 mM NaCl, 1 mM Na2EDTA, 1% NP40, 0.5% NaDOC, 10% glycerol; IP with anti-tag antibody (anti-HA; anti-Myc or anti-Flag) and protein A/G-agarose at 4 °C, western blot
Myc-tagged HDAC1 = Myc-tagged HDAC1 (UniProt Q13547); assay: as above

| binding [1] | binding [2] | binding (HA-tagged p300) | binding (Myc-tagged HDAC1) | Substance |
| --- | --- | --- | --- | --- |
| binds | binds |  |  | RORγt (endogenous, human Th17 cells) (from UniProt P51449-2 1-497) |
|  |  | binds | binds | Flag-tagged RORγt (from UniProt P51449-2 1-497) |
